From publication PMC7279049
Results are given in words; binding and its absence hold for the method and conditions named. In cells and extracts the contact can be indirect. Some binding calls cover weakened binding; strength is not graded here. Each block holds one binder with its values, some of them ahead of it.

Protein sequences, listed by entry. Tags and fused reporters are not part of them. Residues count along the entry.
UniProt P01009, residues 25-418: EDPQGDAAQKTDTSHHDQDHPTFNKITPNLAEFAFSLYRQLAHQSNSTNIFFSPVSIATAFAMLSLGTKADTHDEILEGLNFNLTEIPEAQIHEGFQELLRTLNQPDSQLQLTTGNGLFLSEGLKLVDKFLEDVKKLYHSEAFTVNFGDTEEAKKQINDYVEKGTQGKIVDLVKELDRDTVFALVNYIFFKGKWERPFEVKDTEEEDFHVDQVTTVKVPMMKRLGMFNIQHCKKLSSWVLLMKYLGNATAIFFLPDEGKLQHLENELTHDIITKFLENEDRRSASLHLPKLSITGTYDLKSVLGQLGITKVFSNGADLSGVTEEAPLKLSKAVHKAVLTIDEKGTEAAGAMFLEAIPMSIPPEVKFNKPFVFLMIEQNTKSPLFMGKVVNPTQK

Key:
[1] = biological target: α1-antitrypsin (α-1AT) (UniProt P01009); experiment: co-IP; HEK293T co-expressing empty vector, EDEM1 or ∆-EDEM1 with α-1AT or NHK, labelled with 35S-Met/Cys for 20 min, lysed in CHAPS buffer; immunoprecipitation with antibodies for α-1AT or EDEM1, SDS-PAGE, autoradiography (Figure A1E)
[2] = biological target: α1-antitrypsin (α-1AT) (UniProt P01009); experiment: co-IP; HEK293T co-expressing empty vector, EDEM1 or ∆-EDEM1 with an ERAD substrate, lysed in CHAPS buffer; immunoprecipitation with antibodies for EDEM1 or for the substrate, Western blot for the co-precipitated protein (Figure 2G-J)
[3] = biological target: T1, ER-degradation enhancing α-mannosidase-like (EDEM1) (UniProt Q92611); experiment: co-IP; HEK293T overexpressing empty vector, EDEM1 or ∆-EDEM1, with or without 30 µM kifunensine overnight; CHAPS buffer; immunoprecipitation with antibodies for EDEM1, SEL1L, OS-9 or XTP3-B, Western blot for EDEM1, SEL1L, OS-9 and XTP3-B (Figure 3B-E; control siRNA samples of Figure A1J)
T1 sequence: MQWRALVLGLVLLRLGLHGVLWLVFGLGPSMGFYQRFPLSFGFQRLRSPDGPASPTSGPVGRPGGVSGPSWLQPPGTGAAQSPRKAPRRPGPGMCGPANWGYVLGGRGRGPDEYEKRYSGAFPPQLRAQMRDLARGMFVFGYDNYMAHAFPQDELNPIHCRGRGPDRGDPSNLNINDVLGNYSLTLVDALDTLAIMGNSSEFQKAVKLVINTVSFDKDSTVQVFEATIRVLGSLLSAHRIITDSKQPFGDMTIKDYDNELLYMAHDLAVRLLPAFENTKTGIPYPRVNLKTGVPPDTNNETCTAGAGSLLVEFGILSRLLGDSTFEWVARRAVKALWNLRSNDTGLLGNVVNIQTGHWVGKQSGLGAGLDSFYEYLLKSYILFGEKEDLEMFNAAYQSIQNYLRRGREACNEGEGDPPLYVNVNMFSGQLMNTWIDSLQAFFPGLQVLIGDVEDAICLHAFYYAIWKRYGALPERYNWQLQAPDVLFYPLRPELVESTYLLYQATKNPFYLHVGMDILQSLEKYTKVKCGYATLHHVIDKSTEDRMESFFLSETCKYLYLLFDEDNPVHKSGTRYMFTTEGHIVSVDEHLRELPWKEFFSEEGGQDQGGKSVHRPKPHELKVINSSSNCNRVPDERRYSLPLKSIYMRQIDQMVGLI

binding [1]: binds
binding [2]: binds
B1: ER-degradation enhancing α-mannosidase-like (EDEM1) (protein, UniProt Q92611 1-657)
chain: T1 sequence

binding [3]: binds
B2: XTP3-B (ERLEC1) (protein, UniProt Q96DZ1 34-483)
chain: LPQLSDDIPFRVNWPGTEFSLPTTGVLYKEDNYVIMTTAHKEKYKCILPLVTSGDEEEEKDYKGPNPRELLEPLFKQSSCSYRIESYWTYEVCHGKHIRQYHEEKETGQKINIHEYYLGNMLAKNLLFEKEREAEEKEKSNEIPTKNIEGQMTPYYPVGMGNGTPCSLKQNRPRSSTVMYICHPESKHEILSVAEVTTCEYEVVILTPLLCSHPKYRFRASPVNDIFCQSLPGSPFKPLTLRQLEQQEEILRVPFRRNKEEDLQSTKEERFPAIHKSIAIGSQPVLTVGTTHISKLTDDQLIKEFLSGSYCFRGGVGWWKYEFCYGKHVHQYHEDKDSGKTSVVVGTWNQEEHIEWAKKNTARAYHLQDDGTQTVRMVSHFYGNGDICDITDKPRQVTVKLKCKESDSPHAVTVYMLEPHSCQYILGVESPVICKILDTADENGLLSLPN
